Values quoted from earlier work, collected in patent publication US9095613B2, “Photosensitizer-metal nanoparticle charge complex and composition containing the complex for photodynamic therapy or diagnosis” (NATIONAL CANCER CENTER, priority 2009, dated 2015).
At least one structure is not confirmed: it was looked up by name or label, or the drawing left a doubt.

Assays:
[1] = at 652 nm; cited from earlier work
[2] = cited from earlier work

Compound: Oc1cccc(-c2c3nc(c(-c4cccc(O)c4)c4ccc([nH]4)c(-c4cccc(O)c4)c4nc(c(-c5cccc(O)c5)c5ccc2[nH]5)CC4)C=C3)c1 [Foscan]
- molar absorption coefficient [1]: 30000 M⁻¹ cm⁻¹
- increase in efficiency of the photodynamic therapy compared to Photofrin [2]: 200 fold
